# The full ranking holds about 33,000 sequences; the median of “E-score (-0.5 to 0.5)” is about -0.015, and the highest 2% start at about 0.3. Some of the results follow.
# Biological target: T1, Abf1 (UniProt P14164)
# T1 sequence: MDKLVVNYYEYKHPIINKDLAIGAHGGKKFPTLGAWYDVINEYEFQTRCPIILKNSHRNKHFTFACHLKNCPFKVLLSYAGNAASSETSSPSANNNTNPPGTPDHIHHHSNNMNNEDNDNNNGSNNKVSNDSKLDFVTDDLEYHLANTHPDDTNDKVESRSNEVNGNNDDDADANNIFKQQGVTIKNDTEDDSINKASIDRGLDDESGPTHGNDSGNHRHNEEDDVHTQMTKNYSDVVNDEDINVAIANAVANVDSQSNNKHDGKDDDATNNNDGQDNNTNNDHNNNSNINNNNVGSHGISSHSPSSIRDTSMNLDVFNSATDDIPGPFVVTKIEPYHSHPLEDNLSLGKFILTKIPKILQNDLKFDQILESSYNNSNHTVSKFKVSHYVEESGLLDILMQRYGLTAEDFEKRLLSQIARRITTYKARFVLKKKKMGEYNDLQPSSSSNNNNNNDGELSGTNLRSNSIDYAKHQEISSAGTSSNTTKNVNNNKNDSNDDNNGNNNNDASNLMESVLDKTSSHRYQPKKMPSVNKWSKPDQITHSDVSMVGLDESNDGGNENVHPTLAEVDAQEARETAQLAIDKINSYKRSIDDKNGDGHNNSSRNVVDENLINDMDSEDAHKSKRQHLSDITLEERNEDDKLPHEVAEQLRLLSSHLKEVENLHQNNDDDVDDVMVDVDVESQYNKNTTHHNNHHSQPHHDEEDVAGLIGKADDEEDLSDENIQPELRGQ
# Test: PBM E-score (8-mer binding enrichment) (E-score (-0.5 to 0.5)); higher = stronger / more preferred TF binding
# Details: protein concentration: 200 nM; construct: GST-full length
# Description: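 Universal 'all 10-mer' protein binding microarrays (Agilent AMADID 015681) probed with GST-tagged S. cerevisiae TFs (full-length or DBD) made by in vitro transcription/translation (PURExpress), about 100-200 nM. Bound TF was detected with fluorescent anti-GST. Each ungapped 8-mer (which stands for itself and its reverse complement) is scored by the PBM enrichment score (E-score), a modified Wilcoxon-Mann-Whitney statistic from -0.5 to +0.5, computed with the Universal PBM Analysis Suite. Scale: above 0.35 generally sequence-specific binding.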
row,Sequence,PBM E-score
1,CCGTCACC,0.112
2,ACATCAGG,-0.00197
3,ATTTAGGG,0.184
4,AGAATAGA,0.0064
5,ACCAGCAT,-0.218
6,ACGCATTA,-0.00512
7,AGGATACT,-0.00263
8,AAGGTAAC,0.155
9,ACTTGCAA,0.112
10,TGGGCACA,-0.0575
11,ATGGGCAA,-0.201
12,GTGTGAAC,-0.0296
13,AACCCTGT,-0.0611
14,ATTGTTTG,0.0598
15,TCAGTTCA,0.157
16,GGGAGAAC,-0.163
17,TAGATCGA,-0.0229
18,AGCCCTTG,-0.184
19,GATTGCTA,-0.0668
20,GATCGGCA,-0.139
21,CACTATCC,0.137
22,CCGATGGC,-0.271
23,AAAAAAGC,-0.103
24,AATGGTCA,0.173
25,GCTGAATA,-0.136

# Quoted from the listing.
# GGGAGAAC | PBM E-score: -0.163
# CACTATCC | PBM E-score: 0.137
# ATTGTTTG | PBM E-score: 0.0598

# (list continues)

row,Sequence,PBM E-score
1,CGCGACCC,0.135
2,CAATTCTG,-0.232
3,TGCTAAAA,0.0819
4,TCGACAGA,-0.218
5,AGAAGTGA,0.243
6,ATCTTAGC,-0.126
7,AACACCAT,-0.106
8,ACAAAAAT,0.128
9,CCGAAGGC,-0.0649
10,GATAGCGC,0.13
11,AGATGGCC,-0.053
12,ACTACTCG,-0.0323
13,CGGCGTAC,0.136
14,ATAACGCG,0.118
15,AACGCAAA,0.0846
16,GCATTAAA,0.117
17,CTTCTAGC,-0.185
18,CATGGAAC,-0.0557
19,GGATGAAA,0.128
20,CTCAAGAA,-0.131
21,CCACTGCC,-0.161
22,AGAGTACC,0.107
23,ACTAAGGG,0.0508
24,AAGCCGCC,-0.304
25,AGCAGTTA,0.0105

row,Sequence,PBM E-score
1,AATACCTC,0.0736
2,CTTCTCTA,-0.175
3,TCTTCTAA,-0.0284
4,ACGCAAGC,0.184
5,AGAACCAT,0.0311
6,TAATTTAA,0.0848
7,GATCTGCA,0.0807
8,CATAGTCC,-0.0117
9,ACGCCGCT,-0.163
10,CACCGTGA,0.227
11,ACCCGCAG,-0.0484
12,AAACCTAC,0.0111
13,AACATATT,0.155
14,GGTCATTA,0.134
15,ATGATCAC,0.335
16,ATTTCAGA,0.123
17,CGCAACGA,0.0407
18,AACTTCGG,0.0303
19,GTTTCATA,-0.144
20,CAGATGCG,0.00587
21,TTCGGCAA,0.0515
22,CTCAAAAA,0.00747
23,AAACTAGG,-0.107
24,GCCCGTAC,0.215
25,CCACAAAC,0.0774

row,Sequence,PBM E-score
1,AGCCCTCA,-0.11
2,GTTGAACA,-0.00998
3,GGTCCCCA,-0.124
4,CGTTCCAA,0.148
5,TAAGAAAA,0.0217
6,GGTCTGCA,-0.218
7,ATTTCGGG,-0.114
8,AAAGGGAC,-0.109
9,CGCTACGC,-0.106
10,ACGCTCAT,0.121
11,CTACGATC,0.195
12,ACATTTAC,0.117
13,CGGCGTAG,0.107
14,ACAATTGC,-0.12
15,ACCGGGTC,-0.0376
16,ACTGGTAT,0.0243
17,CTTTATAA,-0.052
18,ACTCGACA,0.103
19,CTCTGTCA,0.0896
20,CTAAAGGC,-0.0574
21,CGTTTTTA,0.236
22,GGGCATAC,-0.162
23,CCTAGTGA,0.123
24,ATTCAGAC,0.0408
25,GGTCTGAC,-0.127

row,Sequence,PBM E-score
1,CTGTCCAA,-0.0401
2,CTTACTTC,0.0316
3,CGAAAGTA,-0.0497
4,GACTCGGA,-0.127
5,CCATTTCG,-0.0163
6,GGGCGCCA,-0.0195
7,CCACCCTA,-0.201
8,CCATTTAG,-0.118
9,ATCCTGGG,-0.103
10,AACATAAC,0.128
11,CCGATTAG,0.00495
12,ACGGAAGG,-0.147
13,CTCGGTTA,-0.0208
14,TCTTGTAA,0.0644
15,CACCTGGA,-0.038
16,TCAAGCCA,-0.127
17,CTCCGGGC,-0.218
18,CCCCGAGC,-0.147
19,CTATCAAA,0.121
20,GAAAGGTA,0.211
21,GCGTGCCC,-0.273
22,AGATGCTG,-0.13
23,CCTACGAG,0.163
24,CCTAGAGA,-0.024
25,GATGCTCC,-0.0364

row,Sequence,PBM E-score
1,GCAGCTGC,-0.198
2,TCGGCGCA,-0.103
3,AAAAACCC,0.0017
4,CTAGTGTA,-0.0115
5,ATAGGTGA,0.189
6,CTACTCGC,-0.0849
7,TGCTGCAA,0.0694
8,CCGACCAG,-0.242
9,AAGCCAGG,-0.0949
10,ATCCCCGC,-0.211
11,GATTATAC,0.231
12,CTGGTGCA,-0.124
13,CATGACTC,-0.16
14,CCGGAACC,-0.181
15,CAGAGCAA,-0.132
16,CTGTGATC,0.0861
17,ACCGGAAA,-0.0557
18,GGATTTAA,0.0848
19,TCCCCCAA,-0.312
20,TGGCGGAA,-0.105
21,GCCCATAC,-0.0631
22,AAATCTAT,0.216
23,TATAGCAA,-0.0649
24,CAGAAGTC,-0.156
25,CTTTAATC,0.00929

row,Sequence,PBM E-score
1,GACTGTCA,0.0864
2,CAAGGGAA,-0.0266
3,CATACGTC,0.0233
4,GTCTTAAA,0.119
5,ACCGCGCC,-0.0845
6,AGTGAACC,-0.00877
7,CACGAAAG,0.272
8,CAGCCAGC,-0.303
9,ATAAGACC,-0.262
10,GGCGTCCC,-0.255
11,ATAATCTA,0.115
12,CGCCCTAA,-0.126
13,GACACCAA,-0.0667
14,CTGTCCCC,-0.245
15,ACCGGCCT,-0.0588
16,CGCCGGAA,-0.133
17,AACCTTGA,-0.0403
18,AACGAGAG,0.0599
19,TAGAGCTA,-0.192
20,CTTTGTTC,-0.106
21,GGCGCCTA,0.0258
22,AATACGGA,0.236

# — the supplement of paper PMC3334620
